Measurements: publication PMC4479245
These are yes or no findings as the source states them, for the method shown. For some of these results: Binding seen in cells or lysates may run through a third protein. Some binding calls cover weakened binding; strength is not graded here.

The chains behind the UniProt entries cited, without tags or fusion partners. Where a name states a change or a piece, a line headed by the entry shows the natural chain unless it says otherwise.
UniProt Q9UBN7: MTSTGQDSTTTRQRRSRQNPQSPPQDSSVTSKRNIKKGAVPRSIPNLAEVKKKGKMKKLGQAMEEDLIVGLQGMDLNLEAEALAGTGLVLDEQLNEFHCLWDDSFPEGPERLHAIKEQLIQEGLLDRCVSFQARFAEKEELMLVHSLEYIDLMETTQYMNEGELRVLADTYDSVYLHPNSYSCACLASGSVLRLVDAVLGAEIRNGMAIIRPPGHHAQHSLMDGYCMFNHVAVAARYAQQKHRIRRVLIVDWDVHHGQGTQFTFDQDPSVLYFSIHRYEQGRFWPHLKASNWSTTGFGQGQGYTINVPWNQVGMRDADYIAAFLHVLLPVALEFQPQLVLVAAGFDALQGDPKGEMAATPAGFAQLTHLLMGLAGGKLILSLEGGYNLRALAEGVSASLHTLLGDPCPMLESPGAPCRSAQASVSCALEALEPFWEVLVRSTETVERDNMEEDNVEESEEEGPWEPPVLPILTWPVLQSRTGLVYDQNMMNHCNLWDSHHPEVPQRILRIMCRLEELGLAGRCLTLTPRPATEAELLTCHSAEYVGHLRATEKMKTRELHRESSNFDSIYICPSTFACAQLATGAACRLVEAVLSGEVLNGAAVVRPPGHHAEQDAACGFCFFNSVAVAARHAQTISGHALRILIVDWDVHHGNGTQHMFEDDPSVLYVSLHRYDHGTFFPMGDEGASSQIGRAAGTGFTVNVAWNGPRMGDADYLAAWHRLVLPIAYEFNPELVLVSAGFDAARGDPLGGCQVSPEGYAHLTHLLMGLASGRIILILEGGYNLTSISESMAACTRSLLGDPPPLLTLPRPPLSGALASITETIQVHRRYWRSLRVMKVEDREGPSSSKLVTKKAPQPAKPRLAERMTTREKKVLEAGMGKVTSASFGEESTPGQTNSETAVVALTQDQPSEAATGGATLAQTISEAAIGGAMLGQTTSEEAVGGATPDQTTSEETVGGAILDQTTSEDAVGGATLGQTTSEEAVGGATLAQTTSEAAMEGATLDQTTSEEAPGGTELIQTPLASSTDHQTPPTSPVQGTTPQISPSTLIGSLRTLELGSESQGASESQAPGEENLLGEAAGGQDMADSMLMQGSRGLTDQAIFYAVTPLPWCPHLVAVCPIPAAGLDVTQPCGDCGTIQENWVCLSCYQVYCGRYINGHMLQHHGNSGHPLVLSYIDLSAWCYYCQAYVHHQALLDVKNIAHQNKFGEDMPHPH
UniProt P12504: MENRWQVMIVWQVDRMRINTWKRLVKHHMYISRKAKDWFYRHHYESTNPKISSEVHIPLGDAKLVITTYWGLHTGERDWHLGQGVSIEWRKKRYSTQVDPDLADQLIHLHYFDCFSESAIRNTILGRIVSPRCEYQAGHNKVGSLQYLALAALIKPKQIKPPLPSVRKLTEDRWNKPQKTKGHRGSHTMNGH
UniProt Q9HC16: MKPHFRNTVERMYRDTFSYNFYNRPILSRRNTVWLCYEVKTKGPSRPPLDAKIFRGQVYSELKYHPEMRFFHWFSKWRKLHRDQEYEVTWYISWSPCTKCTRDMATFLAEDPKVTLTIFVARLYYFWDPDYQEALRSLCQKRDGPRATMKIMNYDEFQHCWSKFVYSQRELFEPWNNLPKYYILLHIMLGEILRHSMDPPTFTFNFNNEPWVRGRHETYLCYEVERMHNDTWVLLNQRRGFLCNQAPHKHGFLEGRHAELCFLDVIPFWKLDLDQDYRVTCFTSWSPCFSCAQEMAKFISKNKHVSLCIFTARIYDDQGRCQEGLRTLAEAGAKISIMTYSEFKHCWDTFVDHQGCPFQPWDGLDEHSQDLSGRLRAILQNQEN

How the values were obtained:
[1] = molecular target: EGFP-HDAC6-BUZ (human) (UniProt Q9UBN7); experiment: co-IP; as a1, but cell lysates treated with RNAse A (1 mg/mL); IP with anti-EGFP (Figure 6b) or anti-HA (Figure 7b, right); western blot
[2] = molecular target: EGFP-HDAC6-ΔBUZ (human) (UniProt Q9UBN7); experiment: as above
[3] = molecular target: EGFP-wt-HDAC6 (human) (UniProt Q9UBN7); experiment: as above
[4] = molecular target: EGFP-HDAC6-ΔBUZ (human) (UniProt Q9UBN7); experiment: co-IP; HEK 293T cells transfected, lysed in RIPA 1X; 2 µg of Ab (anti-HA, anti-HDAC6, anti-myc or anti-Flag) 2 h at 4°C, protein G Dynabeads, five washes in RIPA; western blot; lysates not treated with RNAse A; for HDAC6/A3G-Vif interactions cells pre-treated with ALLN (25 μM, 16 h)
[5] = molecular target: EGFP-wt-HDAC6 (human) (UniProt Q9UBN7); experiment: as above
[6] = molecular target: endogenous HDAC6 (HEK 293T cells) (human (endogenous in HEK 293T)) (UniProt Q9UBN7); experiment: as above
[7] = molecular target: HA-Vif (HEK 293T) (HIV-1) (UniProt P12504); experiment: co-IP; as a1, but cell lysates treated with RNAse A (1 mg/mL); IP with anti-EGFP (Figure 6b) or anti-HA (Figure 7b, right); western blot
[8] = molecular target: HA-Vif (HEK 293T) (HIV-1) (UniProt P12504); experiment: co-IP; HEK 293T cells transfected, lysed in RIPA 1X; 2 µg of Ab (anti-HA, anti-HDAC6, anti-myc or anti-Flag) 2 h at 4°C, protein G Dynabeads, five washes in RIPA; western blot; lysates not treated with RNAse A; for HDAC6/A3G-Vif interactions cells pre-treated with ALLN (25 μM, 16 h)
[9] = molecular target: A3G-3xHA (human) (UniProt Q9HC16); experiment: as above
[10] = molecular target: GST-A3G (human) (UniProt Q9HC16); experiment: pull-down; 3 μg GST fusion protein immobilised on glutathione-Sepharose beads, 2 μg purified in vitro translated HA-tagged protein, overnight in RIPA buffer at 4°C, three washes; anti-HA blot; both purified
[11] = molecular target: GST-A3G-C97A (human) (UniProt Q9HC16); experiment: as above
[12] = molecular target: GST-A3G-D128K (human) (UniProt Q9HC16); experiment: as above
[13] = molecular target: GST-Vif (HIV-1) (UniProt P12504); experiment: as above
[14] = molecular target: GST-A3G-D128K (human) (UniProt Q9HC16); experiment: pull-down; as a4, but GST-A3G-D128K on beads incubated with both HA-Vif and HA-HDAC6 (wt or ΔBUZ) proteins; anti-HA blot; both purified
[15] = molecular target: A3G-Flag (human) (UniProt Q9HC16); experiment: co-IP; HEK 293T cells transfected, lysed in RIPA 1X; 2 µg of Ab (anti-HA, anti-HDAC6, anti-myc or anti-Flag) 2 h at 4°C, protein G Dynabeads, five washes in RIPA; western blot; lysates not treated with RNAse A; for HDAC6/A3G-Vif interactions cells pre-treated with ALLN (25 μM, 16 h)
[16] = molecular target: A3G-myc (human) (UniProt Q9HC16); experiment: as above
[17] = molecular target: endogenous HDAC6 (CEM.NKR.CCR5 cells) (human (endogenous in CEM.NKR-CCR5)) (UniProt Q9UBN7); experiment: co-IP; CEM.NKR.CCR5 cell lysates, endogenous HDAC6 and A3G, without or with nucleofected Vif; IP with anti-HDAC6 Ab; blots with HDAC6, A3G or Vif Abs

A3G-3xHA (from UniProt Q9HC16 1-384)
binding [1]: binds
binding [2]: binds
binding [3]: binds
binding [4]: binds
binding [5]: binds
binding [6]: binds

EGFP-HDAC6-ΔBUZ (from UniProt Q9UBN7 1-840) (domain or fragment)
binding [7]: binds
binding [8]: binds

EGFP-wt-HDAC6 (from UniProt Q9UBN7 1-1215)
binding [7]: binds
binding [9]: binds
binding [8]: binds

HA-BUZ (in vitro translated) (from UniProt Q9UBN7 841-1215) (domain or fragment)
binding [10]: binds
binding [11]: binds
binding [12]: binds
binding [13]: binds

HA-HDAC6-ΔBUZ (in vitro translated) (from UniProt Q9UBN7 1-840) (domain or fragment)
binding [14]: binds
binding [10]: binds
binding [11]: binds
binding [12]: binds
binding [13]: binds

HA-wt-HDAC6 (HEK 293T) (from UniProt Q9UBN7 1-1215)
binding [15]: binds
binding [16]: binds

Vif (overexpressed in CEM.NKR.CCR5 cells) (from UniProt P12504)
binding [17]: binds

endogenous A3G (CEM.NKR.CCR5 cells) (from UniProt Q9HC16 1-384)
binding [17]: binds

endogenous HDAC6 (HEK 293T cells) (from UniProt Q9UBN7 1-1215)
binding [9]: binds
